What all share (test): protein microarray (ProtoArray v5.0), streptavidin-Alexa Fluor 647
Holding throughout (conditions): 3'-biotin; 20 mM Tris (pH 7.5), 5 mM MgCl2, 100 mM KCl, 0.1% Tween-20, A/T-rich and random oligonucleotide blockers; temperature not stated; high values mean tight binding

Experiment [1] concerns CISD1 (human).
For experiment [2], the target named is T1, CISH (UniProt Q9NSE2).
T1 sequence: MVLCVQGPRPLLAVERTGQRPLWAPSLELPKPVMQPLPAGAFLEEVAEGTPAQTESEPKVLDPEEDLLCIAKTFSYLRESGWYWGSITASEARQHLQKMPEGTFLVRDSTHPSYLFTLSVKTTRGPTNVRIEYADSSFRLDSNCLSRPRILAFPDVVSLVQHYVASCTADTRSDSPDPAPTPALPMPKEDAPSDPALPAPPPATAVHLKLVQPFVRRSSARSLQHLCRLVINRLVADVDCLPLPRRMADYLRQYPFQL

The test system of experiment [3] is CKB (human).
In experiment [4] the test system is CKLF-like MARVEL transmembrane domain-containing protein 1 (human).
For experiment [5], the system named is CKLFSF5 (human).
Experiment [6] concerns CKM (human).
Experiment [7] has as its system CLCF1 (human).
Experiment [8] relates to CLDN1 (human).
Experiment [9] concerns CLDN10 (human).
Experiment [10] has as its system CLDN12 (human).
Experiment [11] deals with CLDN14 (human).
Experiment [12] concerns CLDN15 (human).
The subject of experiment [13] is CLDN18 (human).
Experiment [14] has as its system CLDN2 (human).
For experiment [15], the system named is CLDN20 (human).
Experiment [16] has as its system CLDN3 (human).
Experiment [17] relates to CLDN7 (human).
In experiment [18] the test system is CLEC10A (human).
Experiment [19] relates to CLEC4D (human).
For experiment [20], the system named is CLEC4E (human).

The list shows a part of the results. For some assays here: The exact form of the protein is not confirmed.

Consider “GGGAGGCTGAGGCAGG [G4-1 biotinylated (PQS2)]”, for which the binding signal in experiment [1] is -0.322 z-score; in experiment [2], -0.327 z-score; in [3], -0.301 z-score; in experiment [4] it was -0.334 z-score; in experiment [5], -0.35 z-score; in experiment [6], -0.355 z-score. Further, the binding signal in experiment [7] was -0.355 z-score; in experiment [8], -0.296 z-score; in experiment [9], -0.304 z-score; in experiment [10], -0.331 z-score; in [11], -0.311 z-score; in experiment [12], -0.308 z-score. The binding signal in [13] was -0.36 z-score; in experiment [14], -0.345 z-score; in [15] it was -0.289 z-score; in experiment [16] it was -0.275 z-score; in [17], -0.291 z-score; in experiment [18], -0.279 z-score. The binding signal in [19] was -0.331 z-score; in experiment [20] it was -0.304 z-score.

For the origin of these results see article PMC5996148.
